Data published in patent US4769445 (dated 1988).

Assay: general procedure: peptide synthesis; aminomethyl-polystyrene with 4-(oxymethyl)phenylacetyl handle (PAM-Resin); active esters of protected amino acids
Settings: whole synthesis, overall theoretical yield, ammonium salt

cholecystokinin (26-33)
crude yield: 105%
isolated yield (run 1): 23%
isolated yield (run 2): 29%
